The values that follow come from the supplement of paper PMC3334620.

Over roughly 33,000 sequences, “E-score (-0.5 to 0.5)” has its median near -0.015; the highest 2% begin near 0.3. The list shows a part of the results.

The target of this assay is T1, Abf1 (UniProt P14164).
T1 sequence: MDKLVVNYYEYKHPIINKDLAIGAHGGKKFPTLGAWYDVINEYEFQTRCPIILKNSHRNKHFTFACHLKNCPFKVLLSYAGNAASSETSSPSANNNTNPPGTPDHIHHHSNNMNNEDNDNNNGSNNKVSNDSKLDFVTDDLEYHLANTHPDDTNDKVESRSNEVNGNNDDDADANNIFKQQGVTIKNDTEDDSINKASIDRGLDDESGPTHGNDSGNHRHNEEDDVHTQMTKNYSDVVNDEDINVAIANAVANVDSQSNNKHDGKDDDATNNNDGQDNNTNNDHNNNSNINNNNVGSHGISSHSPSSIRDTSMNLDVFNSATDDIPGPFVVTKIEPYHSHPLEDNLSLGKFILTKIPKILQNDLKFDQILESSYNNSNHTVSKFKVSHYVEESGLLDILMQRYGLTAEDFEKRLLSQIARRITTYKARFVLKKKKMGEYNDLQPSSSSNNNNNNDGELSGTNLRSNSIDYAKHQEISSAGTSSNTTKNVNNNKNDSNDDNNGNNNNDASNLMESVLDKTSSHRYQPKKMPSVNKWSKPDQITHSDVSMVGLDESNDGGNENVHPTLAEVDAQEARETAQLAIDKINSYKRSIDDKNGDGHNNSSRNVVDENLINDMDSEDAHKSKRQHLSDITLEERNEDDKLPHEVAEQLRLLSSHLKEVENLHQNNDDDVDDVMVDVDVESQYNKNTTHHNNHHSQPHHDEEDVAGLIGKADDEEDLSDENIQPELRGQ
Nature of the assay: PBM E-score (8-mer binding enrichment) (E-score (-0.5 to 0.5)); higher = stronger / more preferred TF binding. As to conditions: protein concentration: 200 nM; construct: GST-full length. A digest of the protocol: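 Using PURExpress in vitro transcription/translation, GST-tagged yeast transcription factors were made in full-length or DNA-binding-domain form. These were applied at about 100-200 nM to double-stranded universal all-10-mer Agilent arrays, and bound protein was detected with fluorescent anti-GST. Scans were normalised with masliner before the Universal PBM Analysis Suite assigned E-scores to ungapped eight-base words pooled with their reverse complements.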
For the sequence TCTGGAAA, the “PBM E-score” value stood at 0.0108.
With GCTTATAC, the “PBM E-score” value is 0.0755.
As for GTTGGTAA, the “PBM E-score” value was determined as 0.105.
Turning to ACGTCCAA, the “PBM E-score” value is 0.0503.
The figure for AAGGGATG is -0.0663.
In the case of TCCACCGA, the “PBM E-score” value is -0.174.
As to CGCTGCTA, the “PBM E-score” value was -0.129.
Take GAGGCAAC: the “PBM E-score” value is -0.112.
Turning to ATGAGCGG, the “PBM E-score” value is -0.0229.
The figure for ACGATTCG is 0.291.
For GGCTTAAC, the “PBM E-score” value is -0.0442.
Turning to CGTGGAGA, the “PBM E-score” value was found to be 0.238.
The figure for AGTTATCA is 0.302; for CGCCTCCG it is -0.0713.
In the case of GAGCTATA, the “PBM E-score” value was found to be 0.0615.
On to ATTCTCTG, for which the “PBM E-score” value is 0.0737.
The figure for TGTATCAA is -0.0209; for ACCCGAGC it is 0.0288; for AGAACTAT it is 0.00967.
Consider ATACCGGG, for which the “PBM E-score” value was -0.0368.
The same measure for CTACTGAC: -0.173; for GGTGTCAC: 0.163.
Take GCCAGACA: the “PBM E-score” value was -0.232.
For the sequence AGTGCTGG, the “PBM E-score” value stood at 0.0849.
CGGGAAGA: the “PBM E-score” value was found to be 0.0163.
The figure for ATGTTATC is 0.239; for ACAAACTG it is -0.0686.
For the sequence AGGCGAGG, the “PBM E-score” value is -0.169.
Take AGCAATAA: the “PBM E-score” value was -0.126.
For the sequence GACTTGCA, the “PBM E-score” value turned out to be 0.00492.
Consider ATGCATGC, for which the “PBM E-score” value amounted to 0.0513.
Turning to TCGACCCA, the “PBM E-score” value was -0.0678.
With AACGGAAC, the “PBM E-score” value turned out to be 0.119.
For the sequence AAAAACAG, the “PBM E-score” value is -0.102.
Take AGGCAAAT: the “PBM E-score” value is 0.0127.
CTCGCTAA: the “PBM E-score” value was -0.121.
Consider ATTCAAAT, for which the “PBM E-score” value worked out at 0.0825.
The figure for AGATCGCT is 0.134; for TAAGATCA it is 0.314.
GCAAGCCA: the “PBM E-score” value was -0.0325.
The same measure for GAATATGC: -0.0435; for GAGCGTTA: 0.0982.
Take ATTGGCAC: the “PBM E-score” value amounted to 0.0333.
The same measure for CTACGGAC: 0.0572; for GATACGGA: 0.279.
The same measure for ATTACGGG: -0.0226.
Take AGTTGTAT: the “PBM E-score” value came out at 0.00525.
Regarding CCTGTTGA, the “PBM E-score” value is -0.00684.
The figure for AGAGTACA is -0.0805.
Consider ACCCCGCA, for which the “PBM E-score” value was 0.0217.
The figure for AGACACCA is -0.0405; for TCCACAGA it is -0.0113.
For the sequence GAACTCCA, the “PBM E-score” value turned out to be 0.0468.
The same measure for CGGAGACG: 0.0614; for CGCCACTA: -0.0983; for CGAACTGA: -0.192.
For ATCGTGCG, the “PBM E-score” value was 0.366.
On to CGCCTAAG, for which the “PBM E-score” value is -0.012.
The figure for CCAAGTCG is 0.0822.
For AATTATGA, the “PBM E-score” value was 0.24.
Take GCAGATAA: the “PBM E-score” value worked out at 0.0204.
Take AGCTTACG: the “PBM E-score” value turned out to be 0.0124.
On to GAGACAGC, for which the “PBM E-score” value was -0.0321.
For CCCACCTC, the “PBM E-score” value was -0.29.
The figure for GTATAAGA is 0.179.
The figure for GACCCTCA is -0.172; for GCCGCTGA it is -0.189; for AATGCTGA it is -0.033.
For the sequence TGCCCGCA, the “PBM E-score” value was -0.00977.
With ATATACGC, the “PBM E-score” value worked out at 0.146.
In the case of CGAAGTCC, the “PBM E-score” value was -0.103.
For AGGTTTCC, the “PBM E-score” value was -0.0868.
The same measure for GTTATTTA: 0.0322; for AAAGCTGA: -0.114.
Regarding AGCTTAGC, the “PBM E-score” value came to 0.044.
As for CAATCGAC, the “PBM E-score” value is 0.0189.
Regarding ACGAGAGT, the “PBM E-score” value was 0.0659.
With GTGAAAAA, the “PBM E-score” value came to 0.221.
For CCCTTAGG, the “PBM E-score” value was -0.0737.
For AGCGTTAG, the “PBM E-score” value was -0.0881.
Turning to ATGAATAG, the “PBM E-score” value was -0.00206.
With AGAGGAAC, the “PBM E-score” value was -0.139.
As to CTCCTCCA, the “PBM E-score” value was -0.157.
For the sequence ACTGACAG, the “PBM E-score” value was 0.0216.
For CAGGCGTC, the “PBM E-score” value was -0.21.
The figure for ATGAACAG is -0.0351.
